In PMC4537036 one finds binding data, which are given here for three molecules.

Results are given in words; binding and its absence hold for the method and conditions named. For part of these data: Binding seen in cells or lysates may run through a third protein. Some entries that bind do so weakly or less than the wild type. For part of these data: Sequences can lack the tags named with a protein.

Experiment [1] addresses T1, Leupaxin, full length, yeast two-hybrid bait (pGBKT7-LPXN) (human) (UniProt O60711).
T1 sequence: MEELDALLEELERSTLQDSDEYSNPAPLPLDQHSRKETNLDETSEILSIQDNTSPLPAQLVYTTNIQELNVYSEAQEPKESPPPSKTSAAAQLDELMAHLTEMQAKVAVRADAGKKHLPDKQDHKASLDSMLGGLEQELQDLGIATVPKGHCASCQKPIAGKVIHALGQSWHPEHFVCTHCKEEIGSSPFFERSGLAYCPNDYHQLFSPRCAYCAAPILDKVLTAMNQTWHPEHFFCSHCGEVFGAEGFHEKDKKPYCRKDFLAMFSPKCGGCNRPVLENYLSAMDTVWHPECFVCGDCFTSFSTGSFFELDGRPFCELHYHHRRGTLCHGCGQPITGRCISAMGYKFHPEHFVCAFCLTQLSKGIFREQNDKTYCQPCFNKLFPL
The experiment can be described thus: two-hybrid; direct test: pGBKT7-LPXN and pGADT7-CALD1 co-transformed into yeast AH109; SD -LTHA with 80 mg/l X-Gal.

The target in experiment [2] is T2, GST-LPXN (full-length leupaxin) (human) (UniProt O60711).
T2 sequence: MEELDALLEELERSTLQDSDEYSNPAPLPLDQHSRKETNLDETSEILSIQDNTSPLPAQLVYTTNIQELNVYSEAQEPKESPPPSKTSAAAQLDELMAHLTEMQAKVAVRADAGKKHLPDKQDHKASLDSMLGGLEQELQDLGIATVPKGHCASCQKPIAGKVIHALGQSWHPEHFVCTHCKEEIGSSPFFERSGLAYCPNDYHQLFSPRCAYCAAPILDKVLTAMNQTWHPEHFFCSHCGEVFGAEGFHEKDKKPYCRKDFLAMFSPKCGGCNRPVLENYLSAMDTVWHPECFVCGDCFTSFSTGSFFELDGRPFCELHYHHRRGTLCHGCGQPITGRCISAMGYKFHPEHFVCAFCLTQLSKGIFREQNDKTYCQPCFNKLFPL
The experiment can be described thus: pull-down; purified GST-LPXN fusion proteins on glutathione-Sepharose, incubated with protein lysate of PC-3 cells transfected with pEGFP-Caldesmon; blot with CaD-specific antibody; only the target purified.

The target in experiment [3] is T3, Caldesmon-Myc fusion protein (pCMV-Myc-CaD) (human) (UniProt Q05682).
T3 sequence: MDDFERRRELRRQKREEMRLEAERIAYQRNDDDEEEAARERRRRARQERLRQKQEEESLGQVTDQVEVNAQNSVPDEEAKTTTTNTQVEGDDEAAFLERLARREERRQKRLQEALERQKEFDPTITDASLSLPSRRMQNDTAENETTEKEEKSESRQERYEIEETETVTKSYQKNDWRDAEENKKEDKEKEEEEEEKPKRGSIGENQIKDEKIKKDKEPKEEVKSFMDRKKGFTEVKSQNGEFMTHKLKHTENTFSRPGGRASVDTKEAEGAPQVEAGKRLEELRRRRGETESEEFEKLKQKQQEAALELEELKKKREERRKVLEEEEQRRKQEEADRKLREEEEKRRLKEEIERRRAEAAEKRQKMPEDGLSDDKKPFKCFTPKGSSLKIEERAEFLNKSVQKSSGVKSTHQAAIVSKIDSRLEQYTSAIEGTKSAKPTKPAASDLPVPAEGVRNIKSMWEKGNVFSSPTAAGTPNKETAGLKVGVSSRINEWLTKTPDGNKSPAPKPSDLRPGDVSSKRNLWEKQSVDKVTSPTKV
The experiment can be described thus: co-IP; lysate of PC-3 cells transfected with pCMV-Myc-CaD or pCMV-Myc-LPXN; precipitation with anti-CaD or anti-LPXN antibody, blot with LPXN-specific or CaD-specific antibody.

B1: Caldesmon, full length, yeast two-hybrid prey (pGADT7-CALD1) (protein, UniProt Q05682-4 1-538)
chain: MDDFERRRELRRQKREEMRLEAERIAYQRNDDDEEEAARERRRRARQERLRQKQEEESLGQVTDQVEVNAQNSVPDEEAKTTTTNTQVEGDDEAAFLERLARREERRQKRLQEALERQKEFDPTITDASLSLPSRRMQNDTAENETTEKEEKSESRQERYEIEETETVTKSYQKNDWRDAEENKKEDKEKEEEEEEKPKRGSIGENQIKDEKIKKDKEPKEEVKSFMDRKKGFTEVKSQNGEFMTHKLKHTENTFSRPGGRASVDTKEAEGAPQVEAGKRLEELRRRRGETESEEFEKLKQKQQEAALELEELKKKREERRKVLEEEEQRRKQEEADRKLREEEEKRRLKEEIERRRAEAAEKRQKMPEDGLSDDKKPFKCFTPKGSSLKIEERAEFLNKSVQKSSGVKSTHQAAIVSKIDSRLEQYTSAIEGTKSAKPTKPAASDLPVPAEGVRNIKSMWEKGNVFSSPTAAGTPNKETAGLKVGVSSRINEWLTKTPDGNKSPAPKPSDLRPGDVSSKRNLWEKQSVDKVTSPTKV
Take B1: the binding entry in experiment [1] is “binds”.

B2: EGFP-Caldesmon fusion protein (pEGFP-CALD1) (protein, UniProt Q05682-4 1-538)
chain: MDDFERRRELRRQKREEMRLEAERIAYQRNDDDEEEAARERRRRARQERLRQKQEEESLGQVTDQVEVNAQNSVPDEEAKTTTTNTQVEGDDEAAFLERLARREERRQKRLQEALERQKEFDPTITDASLSLPSRRMQNDTAENETTEKEEKSESRQERYEIEETETVTKSYQKNDWRDAEENKKEDKEKEEEEEEKPKRGSIGENQIKDEKIKKDKEPKEEVKSFMDRKKGFTEVKSQNGEFMTHKLKHTENTFSRPGGRASVDTKEAEGAPQVEAGKRLEELRRRRGETESEEFEKLKQKQQEAALELEELKKKREERRKVLEEEEQRRKQEEADRKLREEEEKRRLKEEIERRRAEAAEKRQKMPEDGLSDDKKPFKCFTPKGSSLKIEERAEFLNKSVQKSSGVKSTHQAAIVSKIDSRLEQYTSAIEGTKSAKPTKPAASDLPVPAEGVRNIKSMWEKGNVFSSPTAAGTPNKETAGLKVGVSSRINEWLTKTPDGNKSPAPKPSDLRPGDVSSKRNLWEKQSVDKVTSPTKV
On to B2, for which the binding result in experiment [2] is “binds”.

B3: Leupaxin, endogenous in prostate cancer cells (protein, UniProt O60711 1-386)
chain: MEELDALLEELERSTLQDSDEYSNPAPLPLDQHSRKETNLDETSEILSIQDNTSPLPAQLVYTTNIQELNVYSEAQEPKESPPPSKTSAAAQLDELMAHLTEMQAKVAVRADAGKKHLPDKQDHKASLDSMLGGLEQELQDLGIATVPKGHCASCQKPIAGKVIHALGQSWHPEHFVCTHCKEEIGSSPFFERSGLAYCPNDYHQLFSPRCAYCAAPILDKVLTAMNQTWHPEHFFCSHCGEVFGAEGFHEKDKKPYCRKDFLAMFSPKCGGCNRPVLENYLSAMDTVWHPECFVCGDCFTSFSTGSFFELDGRPFCELHYHHRRGTLCHGCGQPITGRCISAMGYKFHPEHFVCAFCLTQLSKGIFREQNDKTYCQPCFNKLFPL
On to B3, for which, in experiment [3], the binding entry was “binds”.
